{"source": "PubChem BioAssay AID1259254 (NCATS, 2017)", "purpose": "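Gene knock-downs that lead to re-replication, shown by excess G2 DNA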 (primary screen)", "cell system": "human HCT116 colorectal cancer cells", "reagent": "single siRNA against human genes", "duration": "3 days", "measured": "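Imaged Hoechst DNA stain sorts each cell into a cycle phase by DNA amount; per plate, G2 fraction set to 0% for non-targeting and 100% for GMNN siRNA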", "reading the numbers": "G2 robust z-score: higher = more G2 cells, more excess DNA replication", "hit rule": "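Active siRNAs have a G2 robust z of 5 or more median absolute deviations over the median, which in these data means about 38% or higher of GMNN control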", "note": "In all, the deposit lists about 59,000 reagents; below is a part drawn at random. About 1,550 of them (2.6%) were called active. 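G2 share is only a proxy for re-replication; each gene was hit by three separate siRNAs, and active genes were retested.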 Unmarked entries are inactive. Reagents against one gene are numbered here. Not all columns of the deposit are shown. Not stated in the record: the amount of reagent."}
{"target": "DARS2 (GeneID 55157)", "reagent": 1, "G2 robust z-score": -0.991}
{"target": "DARS2 (GeneID 55157)", "reagent": 2, "G2 robust z-score": -1.39}
{"target": "DARS2 (GeneID 55157)", "reagent": 3, "G2 robust z-score": -0.841}
{"target": "PCDHAC2 (GeneID 56134)", "reagent": 1, "G2 robust z-score": 0.871}
{"target": "PCDHAC2 (GeneID 56134)", "reagent": 2, "G2 robust z-score": 2.08}
{"target": "PCDHAC2 (GeneID 56134)", "reagent": 3, "G2 robust z-score": -0.493}
{"target": "BCAT2 (GeneID 587)", "reagent": 1, "G2 robust z-score": -0.724}
{"target": "BCAT2 (GeneID 587)", "reagent": 2, "G2 robust z-score": 0.458}
{"target": "BCAT2 (GeneID 587)", "reagent": 3, "G2 robust z-score": 0.438}
{"target": "TDP1 (GeneID 55775)", "reagent": 1, "G2 robust z-score": -1.57}
{"target": "TDP1 (GeneID 55775)", "reagent": 2, "G2 robust z-score": -0.312}
{"target": "TDP1 (GeneID 55775)", "reagent": 3, "G2 robust z-score": -0.744}
{"target": "TMEM154 (GeneID 201799)", "reagent": 1, "G2 robust z-score": 0.763}
{"target": "TMEM154 (GeneID 201799)", "reagent": 2, "G2 robust z-score": -0.472}
{"target": "TMEM154 (GeneID 201799)", "reagent": 3, "G2 robust z-score": -0.158}

5 successive entries already listed:
{"target": "PCDHAC2 (GeneID 56134)", "reagent": 1, "G2 robust z-score": 0.871}
{"target": "PCDHAC2 (GeneID 56134)", "reagent": 2, "G2 robust z-score": 2.08}
{"target": "PCDHAC2 (GeneID 56134)", "reagent": 3, "G2 robust z-score": -0.493}
{"target": "BCAT2 (GeneID 587)", "reagent": 1, "G2 robust z-score": -0.724}
{"target": "BCAT2 (GeneID 587)", "reagent": 2, "G2 robust z-score": 0.458}

Continued.
{"target": "RAP1GAP2 (GeneID 23108)", "reagent": 1, "G2 robust z-score": -1.34}
{"target": "RAP1GAP2 (GeneID 23108)", "reagent": 2, "G2 robust z-score": -0.259}
{"target": "RAP1GAP2 (GeneID 23108)", "reagent": 3, "G2 robust z-score": 0.32}
{"target": "ARID2 (GeneID 196528)", "reagent": 1, "G2 robust z-score": 0.247}
{"target": "ARID2 (GeneID 196528)", "reagent": 2, "G2 robust z-score": -0.31}
{"target": "ARID2 (GeneID 196528)", "reagent": 3, "G2 robust z-score": -0.254}
{"target": "HYKK (GeneID 123688)", "reagent": 1, "G2 robust z-score": 3.03}
{"target": "HYKK (GeneID 123688)", "reagent": 2, "G2 robust z-score": 0.0197}
{"target": "HYKK (GeneID 123688)", "reagent": 3, "G2 robust z-score": -0.676}
{"target": "GLB1L2 (GeneID 89944)", "reagent": 1, "G2 robust z-score": 0.375}
{"target": "GLB1L2 (GeneID 89944)", "reagent": 2, "G2 robust z-score": 0.531}
{"target": "GLB1L2 (GeneID 89944)", "reagent": 3, "G2 robust z-score": 0.0943}
{"target": "PIGG (GeneID 54872)", "reagent": 1, "G2 robust z-score": -0.141}
{"target": "PIGG (GeneID 54872)", "reagent": 2, "G2 robust z-score": 0.128}
{"target": "PIGG (GeneID 54872)", "reagent": 3, "G2 robust z-score": 1.33}
